Measurements taken from paper doi:10.1101/2023.08.04.551977 (bioRxiv, 2023).
These are yes or no findings as the source states them, for the method shown. Some entries that bind do so weakly or less than the wild type.

Biological target: menin Δ460-519/ 586-615 (human) (UniProt O00255)
Test: SEC-MALS

binding: binds
B1: menin Δ460-519/ 586-615 (natural protein)
chain: MGLKAAQKTLFPLRSIDDVVRLFAAELGREEPDLVLLSLVLGFVEHFLAVNRVIPTNVPELTFQPSPAPDPPGGLTYFPVADLSIIAALYARFTAQIRGAVDLSLYPREGGVSSRELVKKVSDVIWNSLSRSYFKDRAHIQSLFSFITGTKLDSSGVAFAVVGACQALGLRDVHLALSEDHAWVVFGPNGEQTAEVTWHGKGNEDRRGQTVNAGVAERSWLYLKGSYMRCDRKMEVAFMVCAINPSIDLHTDSLELLQLQQKLLWLLYDLGHLERYPMALGNLADLEELEPTPGRPDPLTLYHKGIASAKTYYRDEHIYPYMYLAGYHCRNRNVREALQAWADTATVIQDYNYCREDEEIYKEFFEVANDVIPNLLKEAASLLEAGEERPGEQSQGTQSQGSALQDPECFAHLLRFYDGICKWEEGSPTPVLHVGWATFLVQSLGRFEGQVRQKVRIVSGTVAGTARGPEGGSTAQVPAPTASPPPEGPVLTFQSEKMKGMKELLVATKINSSAIKLQLTAQSQV
modifications: RED-NHS 2nd generation dye label on the labelled partner in the MST experiments
